Literature values in patent US7074426B2, “Methods and drug delivery systems for the treatment of orofacial diseases” (priority 2002, dated 2006).

Test system: osteoclast surfaces
Details: mice, bone, radioactive [3H]alendronate

NCCCC(O)(P(=O)(O)O)P(=O)(O)O [alendronate]
uptake on osteoclast surfaces versus osteoblast surfaces: about 10 fold
